Some of the results follow.
Experiments:
Experiment in all cases: log2 fold change, soluble protein after heating vs DMSO (PISA); higher = thermal stabilisation; K562 cells, 10 uM, 30 min; active = over 0.2 and 3.5 SD of the protein, either way, in both replicates (recomputed)
[1] = compound: CS(=O)(=O)c1ccc(-c2cnc(N)c(C(=O)Nc3ccccc3)n2)cc1
Method in brief: (§1)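 K562 cells (2×10^6 cells/mL) were treated with 10 μM compound for 30 min, and aliquots were heated for 3 min over 48°C-58°C. Pooled aliquots were extracted in PBS with 0.5% NP-40 at 4°C, and the supernatant after 21,000xg for 90 min was measured by TMTpro 16plex LC-MS/MS with channel sums equalised. Reported thermal stability, relative to control samples and from duplicates, is a log2 fold change.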

By UniProt entry, the sequences of proteins in these tests, tags left out. Where a name states a change or a piece, a line headed by the entry shows the natural chain unless it says otherwise.
UniProt Q6P4I2: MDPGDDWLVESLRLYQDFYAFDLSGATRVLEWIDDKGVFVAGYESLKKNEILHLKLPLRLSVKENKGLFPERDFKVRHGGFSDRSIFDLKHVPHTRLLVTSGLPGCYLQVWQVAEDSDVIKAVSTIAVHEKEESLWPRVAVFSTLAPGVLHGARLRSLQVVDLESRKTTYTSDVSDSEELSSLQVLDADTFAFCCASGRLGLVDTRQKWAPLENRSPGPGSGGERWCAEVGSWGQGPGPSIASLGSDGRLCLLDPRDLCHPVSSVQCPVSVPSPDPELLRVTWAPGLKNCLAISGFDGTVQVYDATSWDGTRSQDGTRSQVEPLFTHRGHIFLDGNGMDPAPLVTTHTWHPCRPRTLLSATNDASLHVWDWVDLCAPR
UniProt Q9BRG1: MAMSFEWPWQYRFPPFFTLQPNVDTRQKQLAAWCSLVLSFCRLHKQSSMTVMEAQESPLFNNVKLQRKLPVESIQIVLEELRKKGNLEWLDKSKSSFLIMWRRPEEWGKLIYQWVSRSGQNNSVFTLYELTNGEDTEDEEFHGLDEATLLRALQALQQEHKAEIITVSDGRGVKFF
UniProt Q9Y6W5, whole entry, looked up: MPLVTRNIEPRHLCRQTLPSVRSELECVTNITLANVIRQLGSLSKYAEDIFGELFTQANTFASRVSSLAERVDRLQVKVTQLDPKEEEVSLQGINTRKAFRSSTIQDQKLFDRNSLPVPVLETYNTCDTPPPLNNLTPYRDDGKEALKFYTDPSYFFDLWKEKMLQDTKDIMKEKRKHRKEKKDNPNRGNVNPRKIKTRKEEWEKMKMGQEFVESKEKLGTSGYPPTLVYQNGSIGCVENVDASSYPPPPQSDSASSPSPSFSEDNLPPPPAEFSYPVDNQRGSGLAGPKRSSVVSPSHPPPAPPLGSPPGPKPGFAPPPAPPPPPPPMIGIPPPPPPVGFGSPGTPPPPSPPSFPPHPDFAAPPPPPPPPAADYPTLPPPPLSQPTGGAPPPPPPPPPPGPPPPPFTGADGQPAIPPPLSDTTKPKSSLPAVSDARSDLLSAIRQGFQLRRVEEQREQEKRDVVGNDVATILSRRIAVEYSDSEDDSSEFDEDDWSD
UniProt Q9Y484: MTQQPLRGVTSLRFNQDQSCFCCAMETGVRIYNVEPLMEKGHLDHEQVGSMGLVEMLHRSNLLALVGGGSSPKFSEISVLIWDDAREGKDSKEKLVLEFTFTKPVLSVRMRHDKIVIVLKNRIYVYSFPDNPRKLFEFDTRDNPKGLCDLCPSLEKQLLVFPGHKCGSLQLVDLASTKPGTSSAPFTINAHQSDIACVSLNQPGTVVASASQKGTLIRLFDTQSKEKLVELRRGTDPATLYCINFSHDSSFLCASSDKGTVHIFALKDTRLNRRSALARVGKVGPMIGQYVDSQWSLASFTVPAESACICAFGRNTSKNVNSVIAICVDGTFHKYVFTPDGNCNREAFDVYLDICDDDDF
UniProt Q2M389: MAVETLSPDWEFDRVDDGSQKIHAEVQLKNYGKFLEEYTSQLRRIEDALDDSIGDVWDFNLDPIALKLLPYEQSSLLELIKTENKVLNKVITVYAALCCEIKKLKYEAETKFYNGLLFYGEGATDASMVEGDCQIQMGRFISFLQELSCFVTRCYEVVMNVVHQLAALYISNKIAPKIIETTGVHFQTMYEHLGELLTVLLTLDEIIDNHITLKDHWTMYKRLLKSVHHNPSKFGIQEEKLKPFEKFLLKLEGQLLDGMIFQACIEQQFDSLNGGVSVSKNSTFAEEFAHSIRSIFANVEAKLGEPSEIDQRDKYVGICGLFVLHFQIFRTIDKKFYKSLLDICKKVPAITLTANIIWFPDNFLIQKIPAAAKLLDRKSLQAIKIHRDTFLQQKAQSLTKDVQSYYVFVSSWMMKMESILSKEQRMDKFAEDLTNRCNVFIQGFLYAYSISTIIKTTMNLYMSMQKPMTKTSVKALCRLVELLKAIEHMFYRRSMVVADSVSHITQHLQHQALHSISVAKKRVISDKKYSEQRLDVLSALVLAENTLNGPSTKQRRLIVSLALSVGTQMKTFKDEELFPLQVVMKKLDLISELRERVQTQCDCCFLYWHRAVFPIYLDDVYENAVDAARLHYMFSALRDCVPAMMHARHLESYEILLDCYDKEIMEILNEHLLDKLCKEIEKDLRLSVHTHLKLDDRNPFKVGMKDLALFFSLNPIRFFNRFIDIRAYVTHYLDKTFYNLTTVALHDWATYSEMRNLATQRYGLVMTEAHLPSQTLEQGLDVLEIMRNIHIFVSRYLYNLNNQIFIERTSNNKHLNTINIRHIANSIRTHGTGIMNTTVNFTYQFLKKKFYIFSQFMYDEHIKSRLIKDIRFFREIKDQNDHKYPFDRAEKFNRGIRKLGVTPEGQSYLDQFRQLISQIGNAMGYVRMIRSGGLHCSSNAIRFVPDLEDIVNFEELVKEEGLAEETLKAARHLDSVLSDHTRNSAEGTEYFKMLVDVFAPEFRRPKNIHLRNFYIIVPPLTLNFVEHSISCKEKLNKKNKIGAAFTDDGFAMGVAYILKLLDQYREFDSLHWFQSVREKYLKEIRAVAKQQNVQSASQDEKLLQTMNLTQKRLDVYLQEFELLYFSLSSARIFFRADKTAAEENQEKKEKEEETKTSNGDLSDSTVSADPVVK
UniProt Q96RL7: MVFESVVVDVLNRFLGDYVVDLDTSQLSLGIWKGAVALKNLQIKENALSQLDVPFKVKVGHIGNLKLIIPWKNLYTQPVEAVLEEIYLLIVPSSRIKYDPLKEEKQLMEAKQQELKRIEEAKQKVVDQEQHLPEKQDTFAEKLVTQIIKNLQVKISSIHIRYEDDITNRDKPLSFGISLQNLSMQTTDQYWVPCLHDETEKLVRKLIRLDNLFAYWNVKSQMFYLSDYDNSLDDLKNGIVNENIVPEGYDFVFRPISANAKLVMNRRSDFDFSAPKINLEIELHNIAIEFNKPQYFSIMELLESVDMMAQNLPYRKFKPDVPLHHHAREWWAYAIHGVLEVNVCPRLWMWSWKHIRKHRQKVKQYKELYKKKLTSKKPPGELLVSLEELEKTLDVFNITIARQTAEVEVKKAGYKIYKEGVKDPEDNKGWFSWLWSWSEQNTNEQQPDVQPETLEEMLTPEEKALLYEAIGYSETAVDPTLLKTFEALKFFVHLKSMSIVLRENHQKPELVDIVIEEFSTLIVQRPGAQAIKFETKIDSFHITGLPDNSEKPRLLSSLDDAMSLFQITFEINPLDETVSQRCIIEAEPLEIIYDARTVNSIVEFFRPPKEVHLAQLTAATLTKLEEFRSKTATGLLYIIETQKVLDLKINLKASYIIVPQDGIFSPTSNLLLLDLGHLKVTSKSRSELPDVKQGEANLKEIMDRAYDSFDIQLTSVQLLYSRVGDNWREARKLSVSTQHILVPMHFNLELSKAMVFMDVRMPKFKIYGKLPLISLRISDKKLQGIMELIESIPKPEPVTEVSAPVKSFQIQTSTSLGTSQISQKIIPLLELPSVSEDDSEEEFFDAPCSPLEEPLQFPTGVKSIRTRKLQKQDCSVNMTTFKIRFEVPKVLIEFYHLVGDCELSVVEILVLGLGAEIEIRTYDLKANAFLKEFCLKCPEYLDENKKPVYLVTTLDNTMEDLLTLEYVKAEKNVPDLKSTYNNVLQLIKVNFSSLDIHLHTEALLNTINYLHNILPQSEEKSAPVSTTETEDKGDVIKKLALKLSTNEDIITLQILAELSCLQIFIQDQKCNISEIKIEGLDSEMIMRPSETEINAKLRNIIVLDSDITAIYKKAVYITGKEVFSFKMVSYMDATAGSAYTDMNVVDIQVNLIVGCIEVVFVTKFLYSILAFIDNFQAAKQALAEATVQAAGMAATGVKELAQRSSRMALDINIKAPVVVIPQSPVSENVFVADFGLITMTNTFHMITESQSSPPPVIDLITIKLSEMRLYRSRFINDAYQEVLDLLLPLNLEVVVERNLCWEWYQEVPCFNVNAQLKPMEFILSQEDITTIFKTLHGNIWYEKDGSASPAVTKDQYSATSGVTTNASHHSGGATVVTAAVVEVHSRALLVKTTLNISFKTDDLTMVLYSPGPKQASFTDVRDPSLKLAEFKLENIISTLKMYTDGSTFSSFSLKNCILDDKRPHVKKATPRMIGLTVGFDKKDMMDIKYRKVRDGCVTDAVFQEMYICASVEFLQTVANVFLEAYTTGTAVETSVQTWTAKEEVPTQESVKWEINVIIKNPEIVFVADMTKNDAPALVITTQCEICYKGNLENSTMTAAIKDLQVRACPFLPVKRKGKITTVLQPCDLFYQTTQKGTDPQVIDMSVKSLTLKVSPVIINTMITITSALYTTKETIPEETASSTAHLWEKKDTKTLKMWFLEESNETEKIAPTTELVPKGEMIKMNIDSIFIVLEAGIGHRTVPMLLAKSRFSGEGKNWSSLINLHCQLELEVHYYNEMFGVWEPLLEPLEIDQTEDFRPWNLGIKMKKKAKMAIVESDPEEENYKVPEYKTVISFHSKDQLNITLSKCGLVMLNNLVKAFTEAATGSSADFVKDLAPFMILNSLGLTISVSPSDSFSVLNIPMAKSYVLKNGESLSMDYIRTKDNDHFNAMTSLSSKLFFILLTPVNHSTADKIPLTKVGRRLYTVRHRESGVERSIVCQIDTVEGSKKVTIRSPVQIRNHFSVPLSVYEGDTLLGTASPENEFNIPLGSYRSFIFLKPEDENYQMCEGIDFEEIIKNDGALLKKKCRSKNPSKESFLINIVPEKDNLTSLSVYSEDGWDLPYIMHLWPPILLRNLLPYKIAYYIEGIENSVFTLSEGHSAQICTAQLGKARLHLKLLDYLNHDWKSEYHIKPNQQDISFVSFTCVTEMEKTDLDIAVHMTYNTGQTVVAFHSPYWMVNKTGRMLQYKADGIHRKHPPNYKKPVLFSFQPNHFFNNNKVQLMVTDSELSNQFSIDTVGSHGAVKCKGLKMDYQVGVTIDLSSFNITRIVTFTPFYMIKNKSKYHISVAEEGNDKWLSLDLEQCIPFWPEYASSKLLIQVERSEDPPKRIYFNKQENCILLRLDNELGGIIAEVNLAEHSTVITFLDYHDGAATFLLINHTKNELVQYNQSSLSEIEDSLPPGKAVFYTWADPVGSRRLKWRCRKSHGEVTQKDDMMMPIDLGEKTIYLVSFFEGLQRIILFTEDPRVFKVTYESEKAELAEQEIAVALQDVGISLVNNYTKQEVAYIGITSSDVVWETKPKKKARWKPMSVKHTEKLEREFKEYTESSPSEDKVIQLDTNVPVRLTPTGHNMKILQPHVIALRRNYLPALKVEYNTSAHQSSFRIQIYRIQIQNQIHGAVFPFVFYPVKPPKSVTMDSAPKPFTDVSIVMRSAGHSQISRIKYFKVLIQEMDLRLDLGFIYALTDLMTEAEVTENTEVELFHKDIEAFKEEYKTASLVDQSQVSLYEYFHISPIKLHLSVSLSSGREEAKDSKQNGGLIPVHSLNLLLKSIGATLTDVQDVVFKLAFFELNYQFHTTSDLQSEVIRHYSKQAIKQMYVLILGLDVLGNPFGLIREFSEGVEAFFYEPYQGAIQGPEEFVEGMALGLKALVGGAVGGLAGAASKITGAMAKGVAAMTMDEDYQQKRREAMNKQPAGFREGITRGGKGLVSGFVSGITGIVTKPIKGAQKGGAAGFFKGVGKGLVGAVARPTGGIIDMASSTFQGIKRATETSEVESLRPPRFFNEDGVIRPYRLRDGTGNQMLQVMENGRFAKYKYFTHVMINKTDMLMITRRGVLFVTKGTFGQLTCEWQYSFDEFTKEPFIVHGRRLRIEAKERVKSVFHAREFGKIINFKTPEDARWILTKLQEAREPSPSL
UniProt Q96S55: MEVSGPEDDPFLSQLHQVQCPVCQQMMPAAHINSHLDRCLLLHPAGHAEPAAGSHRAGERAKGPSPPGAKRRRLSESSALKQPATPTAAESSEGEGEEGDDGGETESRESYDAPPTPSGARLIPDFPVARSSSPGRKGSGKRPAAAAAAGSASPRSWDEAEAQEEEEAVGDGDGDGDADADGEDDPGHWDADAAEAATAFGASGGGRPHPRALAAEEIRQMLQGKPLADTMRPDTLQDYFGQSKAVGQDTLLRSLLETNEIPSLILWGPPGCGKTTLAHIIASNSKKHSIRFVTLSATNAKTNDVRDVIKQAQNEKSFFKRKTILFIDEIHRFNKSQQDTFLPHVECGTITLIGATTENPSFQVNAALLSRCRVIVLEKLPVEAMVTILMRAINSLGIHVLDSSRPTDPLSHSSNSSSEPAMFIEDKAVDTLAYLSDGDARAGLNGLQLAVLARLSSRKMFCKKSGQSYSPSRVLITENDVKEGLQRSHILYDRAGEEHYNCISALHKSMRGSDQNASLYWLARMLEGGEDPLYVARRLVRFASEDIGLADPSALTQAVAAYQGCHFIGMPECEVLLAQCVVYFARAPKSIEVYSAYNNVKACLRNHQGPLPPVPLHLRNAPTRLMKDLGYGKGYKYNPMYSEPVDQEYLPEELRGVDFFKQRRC

crizotinib = compound: C[C@@H](Oc1cc(-c2cnn(C3CCNCC3)c2)cnc1N)c1c(Cl)ccc(F)c1Cl [crizotinib]
Method in brief: as §1

[2] = compound: C[C@@H]1COCCN1C2=NC(=NC(=C2)C3(CC3)S(=O)(=O)C)C4=C5C=CNC5=CC=C4
Method in brief: as §1

[3] = compound: C[C@H](C1=CC=C(C=C1)C(=O)NC2=C3C=CNC3=NC=C2)N
Method in brief: as §1

duvelisib = compound: C[C@H](Nc1ncnc2nc[nH]c12)c1cc2cccc(Cl)c2c(=O)n1-c1ccccc1 [duvelisib]
Method in brief: as §1

gandotinib = compound: Cc1cc(Nc2cc(CN3CCOCC3)c3nc(C)c(Cc4ccc(Cl)cc4F)n3n2)n[nH]1 [gandotinib]
Method in brief: as §1

tozasertib = compound: Cc1cc(Nc2cc(N3CCN(C)CC3)nc(Sc3ccc(NC(=O)C4CC4)cc3)n2)n[nH]1 [tozasertib]
Method in brief: as §1

[4] = compound: Cc1cc(SCc2sc(-c3ccc(C(F)(F)F)cc3)nc2C)ccc1OCC(=O)O
Method in brief: as §1

doramapimod = compound: Cc1ccc(-n2nc(C(C)(C)C)cc2NC(=O)Nc2ccc(OCCN3CCOCC3)c3ccccc23)cc1 [doramapimod]
Method in brief: as §1

ispinesib = compound: Cc1ccc(C(=O)N(CCCN)[C@@H](c2nc3cc(Cl)ccc3c(=O)n2Cc2ccccc2)C(C)C)cc1 [ispinesib]
Method in brief: as §1

bafetinib = compound: Cc1ccc(NC(=O)c2ccc(CN3CC[C@H](N(C)C)C3)c(C(F)(F)F)c2)cc1Nc1nccc(-c2cncnc2)n1 [bafetinib]
Method in brief: as §1

[5] = compound: Cc1cccc(CC(=O)N2CCc3c2ccc(-c2cn(C)c4ncnc(N)c24)c3F)n1
Method in brief: as §1

nilotinib = compound: Cc1cn(-c2cc(NC(=O)c3ccc(C)c(Nc4nccc(-c5cccnc5)n4)c3)cc(C(F)(F)F)c2)cn1 [nilotinib]
Method in brief: as §1

[6] = compound: Cc1nc(Nc2n[nH]c3c2CN(C(=O)N[C@H](CN(C)C)c2ccccc2)C3(C)C)c2sccc2n1
Method in brief: as §1

dasatinib = compound: Cc1nc(Nc2ncc(C(=O)Nc3c(C)cccc3Cl)s2)cc(N2CCN(CCO)CC2)n1 [dasatinib]
Method in brief: as §1

[7] = compound: Cc1ncc(-c2ccnc(Nc3ccc(S(C)(=O)=O)cc3)n2)n1C(C)C
Method in brief: as §1

[8] = compound: Cn1cc(-c2ccc3c(c2)CCN3C(=O)Cc2cccc(C(F)(F)F)c2)c2c(N)ncnc21
Method in brief: as §1

[9] = compound: Cn1cc(-c2ccc3nnc(C(F)(F)c4ccc5ncccc5c4)n3n2)cn1
Method in brief: as §1

tipifarnib = compound: Cn1cncc1[C@@](N)(c1ccc(Cl)cc1)c1ccc2c(c1)c(-c1cccc(Cl)c1)cc(=O)n2C [tipifarnib]
Method in brief: as §1

mubritinib = compound: FC(F)(F)c1ccc(/C=C/c2nc(COc3ccc(CCCCn4ccnn4)cc3)co2)cc1 [mubritinib]
Method in brief: as §1

Measured: log2 fold change

WDR82 (UniProt Q6UXN9)
inactive: [1] -0.014 | crizotinib 0.047 | [2] -0.133 | [3] 0.09 | duvelisib -0.086 | gandotinib 0.111 | tozasertib 0.04 | [4] -0.003 | doramapimod 0.062 | ispinesib 0.014 | bafetinib 0.059 | [5] -0.019 | nilotinib 0 | [6] 0.117 | dasatinib 0.091 | [7] 0.03 | [8] -0.111 | [9] -0.063 | tipifarnib 0.059 | mubritinib -0.041

WDR73 (UniProt Q6P4I2)
inactive: [1] -0.001 | crizotinib 0.047 | [2] 0.067 | [3] -0.04 | duvelisib 0.027 | gandotinib -0.094 | tozasertib 0.02 | [4] -0.002 | doramapimod -0.01 | ispinesib 0.031 | bafetinib -0.022 | [5] -0.025 | nilotinib -0.023 | [6] -0.039 | dasatinib 0.02 | [7] 0.004 | [8] 0.027 | [9] 0.024 | tipifarnib 0.003 | mubritinib 0.007

WARS (UniProt P23381)
inactive: [1] 0.011 | crizotinib 0.018 | [2] 0.029 | [3] -0.083 | duvelisib 0.032 | gandotinib -0.011 | tozasertib -0.003 | [4] 0.01 | doramapimod 0.019 | ispinesib 0.067 | bafetinib -0.031 | [5] -0.022 | nilotinib 0.023 | [6] 0.008 | dasatinib 0.011 | [7] 0.006 | [8] 0.029 | [9] -0.033 | tipifarnib -0.039 | mubritinib -0.004

WNK1 isoform 7 (UniProt Q9H4A3)
inactive: [1] 0.022 | crizotinib -0.061 | [2] -0.027 | [3] 0.03 | gandotinib -0.032 | [4] -0.018 | doramapimod 0.001 | ispinesib -0.044 | bafetinib -0.038 | [5] 0.046 | nilotinib -0.029 | [6] -0.071 | dasatinib 0.102 | [7] 0.022 | [8] 0.178 | [9] -0.022 | tipifarnib -0.022 | mubritinib 0.036

VPS29 isoform 2 (UniProt Q9UBQ0)
inactive: [1] 0.04 | crizotinib -0.008 | [2] 0.018 | [3] -0.045 | duvelisib 0.007 | gandotinib -0.052 | tozasertib -0.042 | [4] -0.092 | doramapimod -0.015 | ispinesib -0.002 | bafetinib -0.043 | [5] 0.034 | nilotinib 0.01 | [6] 0.014 | dasatinib 0.064 | [7] 0.012 | [8] -0.004 | [9] 0.005 | tipifarnib 0.023 | mubritinib 0.036

VPS25 (UniProt Q9BRG1)
inactive: [1] 0.004 | crizotinib 0.052 | [2] 0.156 | [3] -0.042 | duvelisib 0.108 | gandotinib -0.118 | tozasertib 0.024 | [4] 0.009 | doramapimod 0.028 | ispinesib 0.072 | bafetinib -0.063 | [5] 0.04 | nilotinib -0.034 | [6] -0.023 | dasatinib -0.001 | [7] -0.037 | [8] 0 | [9] 0.043 | tipifarnib -0.042 | mubritinib 0.044

VPS4B (UniProt O75351)
inactive: [1] 0.023 | crizotinib -0.056 | [2] 0.087 | [3] 0.001 | duvelisib 0.024 | gandotinib -0.074 | tozasertib -0.031 | [4] 0.013 | doramapimod -0.015 | ispinesib -0.053 | bafetinib -0.078 | [5] 0.037 | nilotinib -0.024 | [6] -0.012 | dasatinib -0.109 | [7] 0.02 | [8] 0.028 | [9] -0.012 | tipifarnib -0.086 | mubritinib -0.065

WASF2 (UniProt Q9Y6W5)
inactive: [1] 0.023 | crizotinib -0.033 | [2] -0.122 | [3] 0.008 | duvelisib -0.033 | gandotinib -0.051 | tozasertib -0.044 | [4] -0.025 | doramapimod 0.008 | ispinesib -0.038 | bafetinib -0.034 | [5] -0.025 | nilotinib 0.012 | [6] -0.033 | dasatinib 0.016 | [7] -0.03 | [8] -0.016 | [9] 0.013 | tipifarnib 0.013 | mubritinib 0.025

WDR59 (UniProt Q6PJI9)
inactive: [1] -0.032 | crizotinib 0.074 | [2] -0.405 | [3] 0.012 | duvelisib 0.004 | gandotinib 0.069 | tozasertib -0.004 | [4] -0.059 | doramapimod -0.057 | ispinesib -0.11 | bafetinib -0.017 | [5] -0.111 | nilotinib -0.042 | [6] -0.094 | dasatinib -0.022 | [7] -0.239 | [8] -0.038 | [9] 0.042 | tipifarnib 0.129 | mubritinib -0.027

WDR45 (UniProt Q9Y484)
inactive: [1] 0.012 | crizotinib -0.018 | [2] 0.04 | [3] -0.085 | duvelisib -0.001 | gandotinib -0.069 | tozasertib 0.002 | [4] -0.027 | doramapimod 0.012 | ispinesib 0.022 | bafetinib -0.049 | [5] 0.039 | nilotinib 0.001 | [6] 0.015 | dasatinib 0.038 | [7] 0.005 | [8] 0.014 | [9] -0.024 | tipifarnib -0.009 | mubritinib 0.034

WASHC4 (UniProt Q2M389)
inactive: [1] 0.018 | crizotinib -0.176 | [2] -0.14 | [3] 0.06 | duvelisib -0.056 | gandotinib -0.088 | tozasertib 0.016 | [4] 0.099 | doramapimod 0.018 | ispinesib -0.172 | bafetinib -0.083 | [5] -0.067 | nilotinib -0.122 | [6] 0.102 | dasatinib -0.078 | [7] -0.155 | [8] -0.045 | [9] 0.036 | tipifarnib 0.056 | mubritinib 0.017

VPS13A (UniProt Q96RL7)
inactive: [1] 0.03 | crizotinib -0.05 | [2] 0.007 | [3] 0.003 | duvelisib 0.059 | gandotinib -0.015 | tozasertib -0.021 | [4] -0.008 | doramapimod 0.01 | ispinesib -0.024 | bafetinib -0.045 | [5] 0.027 | nilotinib -0.021 | [6] 0.008 | dasatinib -0.005 | [7] -0.006 | [8] -0.016 | [9] 0.022 | tipifarnib 0.002 | mubritinib 0.008

WRNIP1 (UniProt Q96S55)
inactive: [1] 0.014 | crizotinib -0.31 | [2] 0.101 | [3] -0.032 | duvelisib 0.017 | gandotinib -0.216 | tozasertib -0.047 | [4] 0.141 | doramapimod -0.047 | ispinesib -0.29 | bafetinib -0.093 | [5] -0.093 | nilotinib -0.236 | [6] -0.086 | dasatinib -0.51 | [7] -0.131 | [8] 0.057 | [9] 0.133 | tipifarnib 0.064 | mubritinib -0.244

WDR3 (UniProt Q9UNX4)
inactive: [1] 0.05 | crizotinib -0.087 | [2] -0.278 | [3] 0.399 | duvelisib -0.073 | gandotinib 0.016 | tozasertib 0.116 | [4] 0.078 | doramapimod 0.223 | ispinesib -0.265 | bafetinib 0.077 | [5] 0.012 | nilotinib 0.016 | [6] -0.125 | dasatinib 0.062 | [7] -0.086 | [8] -0.285 | [9] -0.063 | tipifarnib 0.003 | mubritinib -0.171

Taken from above (3 entries):
WDR45 (UniProt Q9Y484)
inactive: [1] 0.012 | crizotinib -0.018 | [2] 0.04 | [3] -0.085 | duvelisib -0.001 | gandotinib -0.069 | tozasertib 0.002 | [4] -0.027 | doramapimod 0.012 | ispinesib 0.022 | bafetinib -0.049 | [5] 0.039 | nilotinib 0.001 | [6] 0.015 | dasatinib 0.038 | [7] 0.005 | [8] 0.014 | [9] -0.024 | tipifarnib -0.009 | mubritinib 0.034

WASHC4 (UniProt Q2M389)
inactive: [1] 0.018 | crizotinib -0.176 | [2] -0.14 | [3] 0.06 | duvelisib -0.056 | gandotinib -0.088 | tozasertib 0.016 | [4] 0.099 | doramapimod 0.018 | ispinesib -0.172 | bafetinib -0.083 | [5] -0.067 | nilotinib -0.122 | [6] 0.102 | dasatinib -0.078 | [7] -0.155 | [8] -0.045 | [9] 0.036 | tipifarnib 0.056 | mubritinib 0.017

VPS13A (UniProt Q96RL7)
inactive: [1] 0.03 | crizotinib -0.05 | [2] 0.007 | [3] 0.003 | duvelisib 0.059 | gandotinib -0.015 | tozasertib -0.021 | [4] -0.008 | doramapimod 0.01 | ispinesib -0.024 | bafetinib -0.045 | [5] 0.027 | nilotinib -0.021 | [6] 0.008 | dasatinib -0.005 | [7] -0.006 | [8] -0.016 | [9] 0.022 | tipifarnib 0.002 | mubritinib 0.008

(next part)

VKORC1L1, A0A3B3ISV4
inactive: [1] -0.101 | crizotinib 0.078 | [2] 0.07 | [3] -0.041 | duvelisib 0.173 | gandotinib -0.049 | tozasertib 0.002 | [4] -0.024 | doramapimod 0.018 | ispinesib 0.197 | bafetinib -0.071 | [5] 0.03 | nilotinib -0.007 | [6] 0.016 | dasatinib -0.001 | [7] -0.088 | [8] 0.012 | [9] 0.268 | tipifarnib 0.155 | mubritinib 0.041

VWA5A (UniProt O00534)
inactive: [1] 0.038 | crizotinib 0.145 | [2] 0.009 | [3] -0.069 | duvelisib 0.042 | gandotinib -0.027 | tozasertib 0.027 | [4] 0.008 | doramapimod -0.052 | ispinesib 0.069 | bafetinib -0.108 | [5] -0.009 | nilotinib 0.006 | [6] -0.023 | dasatinib -0.006 | [7] 0.048 | [8] 0.111 | [9] 0.041 | tipifarnib -0.056 | mubritinib 0.03

Source: the supplement of paper PMC10849652
